This note sets out measurements from the supplement of paper PMC10849652.

Chains of the proteins cited; added tags and fusions are not shown. Lines headed by an entry give the natural chain unless they say otherwise; changes in a name come on top.
UniProt P13995: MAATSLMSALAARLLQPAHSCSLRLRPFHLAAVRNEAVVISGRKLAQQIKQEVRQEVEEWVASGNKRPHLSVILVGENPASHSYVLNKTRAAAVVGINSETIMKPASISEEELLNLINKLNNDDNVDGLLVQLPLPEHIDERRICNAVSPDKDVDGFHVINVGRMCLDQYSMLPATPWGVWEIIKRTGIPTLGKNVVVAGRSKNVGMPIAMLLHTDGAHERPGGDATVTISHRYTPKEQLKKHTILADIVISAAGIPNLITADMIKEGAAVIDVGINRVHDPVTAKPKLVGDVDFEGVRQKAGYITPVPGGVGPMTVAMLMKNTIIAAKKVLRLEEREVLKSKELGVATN
UniProt P00156: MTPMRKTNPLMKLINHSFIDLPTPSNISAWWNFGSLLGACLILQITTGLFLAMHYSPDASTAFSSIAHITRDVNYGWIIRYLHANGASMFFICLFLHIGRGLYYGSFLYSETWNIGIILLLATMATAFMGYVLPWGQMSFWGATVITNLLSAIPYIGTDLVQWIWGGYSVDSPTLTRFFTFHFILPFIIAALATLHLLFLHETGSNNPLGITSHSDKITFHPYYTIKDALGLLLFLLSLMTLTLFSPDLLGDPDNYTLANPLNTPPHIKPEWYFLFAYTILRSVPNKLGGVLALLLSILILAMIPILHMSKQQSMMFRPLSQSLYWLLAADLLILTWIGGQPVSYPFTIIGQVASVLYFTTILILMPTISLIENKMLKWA
UniProt P00846: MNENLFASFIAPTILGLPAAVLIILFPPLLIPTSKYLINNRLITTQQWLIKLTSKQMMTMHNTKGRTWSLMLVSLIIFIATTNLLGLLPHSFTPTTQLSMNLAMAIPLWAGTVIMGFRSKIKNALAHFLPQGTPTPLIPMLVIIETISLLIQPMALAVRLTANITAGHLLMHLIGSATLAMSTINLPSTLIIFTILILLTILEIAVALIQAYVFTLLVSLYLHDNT
UniProt O94832: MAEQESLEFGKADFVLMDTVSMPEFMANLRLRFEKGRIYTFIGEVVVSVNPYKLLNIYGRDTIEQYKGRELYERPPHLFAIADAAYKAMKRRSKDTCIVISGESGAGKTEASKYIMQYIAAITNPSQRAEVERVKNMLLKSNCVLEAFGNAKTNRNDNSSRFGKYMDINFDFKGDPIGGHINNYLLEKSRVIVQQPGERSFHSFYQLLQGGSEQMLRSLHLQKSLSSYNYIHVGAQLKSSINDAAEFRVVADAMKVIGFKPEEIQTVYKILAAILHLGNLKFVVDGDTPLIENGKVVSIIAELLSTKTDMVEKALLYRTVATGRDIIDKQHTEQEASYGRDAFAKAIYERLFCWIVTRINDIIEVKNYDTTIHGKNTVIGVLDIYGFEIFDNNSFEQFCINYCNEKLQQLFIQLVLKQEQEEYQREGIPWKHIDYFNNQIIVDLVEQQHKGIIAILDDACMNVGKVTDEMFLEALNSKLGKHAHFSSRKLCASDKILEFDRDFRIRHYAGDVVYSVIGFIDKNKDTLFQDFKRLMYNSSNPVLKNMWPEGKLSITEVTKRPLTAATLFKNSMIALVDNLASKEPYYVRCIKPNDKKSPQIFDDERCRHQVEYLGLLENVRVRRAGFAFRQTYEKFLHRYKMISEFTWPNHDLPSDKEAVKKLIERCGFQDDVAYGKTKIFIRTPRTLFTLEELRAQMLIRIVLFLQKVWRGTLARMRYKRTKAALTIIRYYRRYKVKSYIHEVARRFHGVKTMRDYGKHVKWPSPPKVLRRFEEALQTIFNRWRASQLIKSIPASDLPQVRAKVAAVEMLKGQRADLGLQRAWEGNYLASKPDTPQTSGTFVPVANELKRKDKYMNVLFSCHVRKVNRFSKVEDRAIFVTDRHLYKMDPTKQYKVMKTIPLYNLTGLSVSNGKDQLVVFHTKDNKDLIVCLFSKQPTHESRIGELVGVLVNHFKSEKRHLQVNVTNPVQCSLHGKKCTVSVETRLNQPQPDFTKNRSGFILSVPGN
UniProt Q96E11: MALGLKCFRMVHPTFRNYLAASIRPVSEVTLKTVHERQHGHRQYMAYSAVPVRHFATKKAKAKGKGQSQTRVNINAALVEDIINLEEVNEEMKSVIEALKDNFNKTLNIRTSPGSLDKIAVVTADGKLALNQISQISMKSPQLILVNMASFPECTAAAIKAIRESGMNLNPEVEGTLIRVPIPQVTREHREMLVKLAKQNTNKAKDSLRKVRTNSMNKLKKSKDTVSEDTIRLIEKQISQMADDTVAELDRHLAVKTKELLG
UniProt P26038, whole entry, looked up: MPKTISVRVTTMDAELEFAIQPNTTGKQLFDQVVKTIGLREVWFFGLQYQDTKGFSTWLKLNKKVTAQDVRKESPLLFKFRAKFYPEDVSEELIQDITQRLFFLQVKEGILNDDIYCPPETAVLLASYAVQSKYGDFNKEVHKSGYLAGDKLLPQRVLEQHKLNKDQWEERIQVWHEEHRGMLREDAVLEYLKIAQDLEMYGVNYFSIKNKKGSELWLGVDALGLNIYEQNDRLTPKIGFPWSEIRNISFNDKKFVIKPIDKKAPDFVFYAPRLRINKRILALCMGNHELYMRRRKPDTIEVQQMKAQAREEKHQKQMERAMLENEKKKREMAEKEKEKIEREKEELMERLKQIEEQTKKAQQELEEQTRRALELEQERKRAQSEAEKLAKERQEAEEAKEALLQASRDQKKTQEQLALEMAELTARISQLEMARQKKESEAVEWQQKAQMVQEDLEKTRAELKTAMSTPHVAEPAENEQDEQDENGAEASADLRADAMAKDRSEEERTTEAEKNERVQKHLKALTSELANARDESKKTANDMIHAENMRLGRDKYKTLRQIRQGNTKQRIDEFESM
UniProt Q15800: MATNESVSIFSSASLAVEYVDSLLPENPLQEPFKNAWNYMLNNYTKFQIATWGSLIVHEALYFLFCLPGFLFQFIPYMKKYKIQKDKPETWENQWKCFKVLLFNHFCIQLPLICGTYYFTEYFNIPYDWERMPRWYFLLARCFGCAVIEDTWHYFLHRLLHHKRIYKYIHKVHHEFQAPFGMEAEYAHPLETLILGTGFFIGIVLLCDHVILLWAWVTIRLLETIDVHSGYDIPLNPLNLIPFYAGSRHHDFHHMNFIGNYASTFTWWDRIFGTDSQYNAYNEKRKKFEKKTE
UniProt Q96DR8: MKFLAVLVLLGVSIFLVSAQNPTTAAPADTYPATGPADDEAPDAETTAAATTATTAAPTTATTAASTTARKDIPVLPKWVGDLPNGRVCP
UniProt Q99417: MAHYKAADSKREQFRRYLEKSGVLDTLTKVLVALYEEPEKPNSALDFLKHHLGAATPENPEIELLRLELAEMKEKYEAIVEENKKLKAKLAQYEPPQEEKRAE
UniProt Q13496: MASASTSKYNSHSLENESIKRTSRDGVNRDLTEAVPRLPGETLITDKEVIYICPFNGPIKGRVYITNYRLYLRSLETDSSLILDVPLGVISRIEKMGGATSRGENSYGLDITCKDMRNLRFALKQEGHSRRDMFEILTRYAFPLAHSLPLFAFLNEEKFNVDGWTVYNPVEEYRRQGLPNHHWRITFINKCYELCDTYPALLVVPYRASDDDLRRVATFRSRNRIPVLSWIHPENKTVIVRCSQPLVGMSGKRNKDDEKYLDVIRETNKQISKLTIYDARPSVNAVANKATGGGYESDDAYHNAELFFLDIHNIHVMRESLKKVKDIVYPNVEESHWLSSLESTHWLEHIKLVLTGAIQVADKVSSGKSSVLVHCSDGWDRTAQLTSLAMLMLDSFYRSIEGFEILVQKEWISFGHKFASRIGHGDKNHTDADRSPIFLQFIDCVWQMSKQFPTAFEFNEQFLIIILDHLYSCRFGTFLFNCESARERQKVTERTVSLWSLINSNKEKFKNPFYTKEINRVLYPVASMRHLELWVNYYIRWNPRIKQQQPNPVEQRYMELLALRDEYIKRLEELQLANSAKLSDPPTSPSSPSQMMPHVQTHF
UniProt P82909: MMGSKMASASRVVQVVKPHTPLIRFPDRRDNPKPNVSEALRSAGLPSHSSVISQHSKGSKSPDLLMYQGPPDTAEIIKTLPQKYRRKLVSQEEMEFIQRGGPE
UniProt Q8NCE2: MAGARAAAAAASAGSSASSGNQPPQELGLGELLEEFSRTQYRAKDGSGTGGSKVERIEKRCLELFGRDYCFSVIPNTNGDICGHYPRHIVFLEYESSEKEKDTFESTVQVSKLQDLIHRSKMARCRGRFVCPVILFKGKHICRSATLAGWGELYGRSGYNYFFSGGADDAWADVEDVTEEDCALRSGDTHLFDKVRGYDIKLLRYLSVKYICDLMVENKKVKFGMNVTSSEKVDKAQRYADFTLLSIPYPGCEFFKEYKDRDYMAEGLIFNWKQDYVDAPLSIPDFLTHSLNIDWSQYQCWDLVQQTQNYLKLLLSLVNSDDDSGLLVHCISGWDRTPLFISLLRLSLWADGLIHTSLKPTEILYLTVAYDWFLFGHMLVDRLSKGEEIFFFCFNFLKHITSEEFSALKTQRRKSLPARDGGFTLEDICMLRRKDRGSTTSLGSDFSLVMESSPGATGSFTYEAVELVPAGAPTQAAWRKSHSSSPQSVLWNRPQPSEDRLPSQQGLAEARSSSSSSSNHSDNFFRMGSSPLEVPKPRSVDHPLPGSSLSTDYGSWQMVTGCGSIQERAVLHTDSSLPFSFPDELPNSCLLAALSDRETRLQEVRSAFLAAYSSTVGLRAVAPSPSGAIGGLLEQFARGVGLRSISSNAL
UniProt O75431: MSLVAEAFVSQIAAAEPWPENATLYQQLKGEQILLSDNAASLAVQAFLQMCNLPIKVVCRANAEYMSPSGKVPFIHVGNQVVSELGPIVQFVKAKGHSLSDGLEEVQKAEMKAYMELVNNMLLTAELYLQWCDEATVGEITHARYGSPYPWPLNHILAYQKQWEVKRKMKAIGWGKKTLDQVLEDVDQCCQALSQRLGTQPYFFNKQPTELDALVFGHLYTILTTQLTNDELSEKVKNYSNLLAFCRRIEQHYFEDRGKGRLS
UniProt Q96S97: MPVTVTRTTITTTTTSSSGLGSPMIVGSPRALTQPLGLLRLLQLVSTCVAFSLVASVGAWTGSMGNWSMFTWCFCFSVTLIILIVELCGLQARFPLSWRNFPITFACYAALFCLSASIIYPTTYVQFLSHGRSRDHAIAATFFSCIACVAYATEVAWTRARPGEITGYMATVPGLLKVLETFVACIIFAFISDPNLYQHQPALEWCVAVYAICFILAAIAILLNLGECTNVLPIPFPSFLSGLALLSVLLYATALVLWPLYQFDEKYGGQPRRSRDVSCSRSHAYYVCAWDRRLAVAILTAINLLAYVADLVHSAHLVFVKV
UniProt Q9UM54, whole entry, looked up: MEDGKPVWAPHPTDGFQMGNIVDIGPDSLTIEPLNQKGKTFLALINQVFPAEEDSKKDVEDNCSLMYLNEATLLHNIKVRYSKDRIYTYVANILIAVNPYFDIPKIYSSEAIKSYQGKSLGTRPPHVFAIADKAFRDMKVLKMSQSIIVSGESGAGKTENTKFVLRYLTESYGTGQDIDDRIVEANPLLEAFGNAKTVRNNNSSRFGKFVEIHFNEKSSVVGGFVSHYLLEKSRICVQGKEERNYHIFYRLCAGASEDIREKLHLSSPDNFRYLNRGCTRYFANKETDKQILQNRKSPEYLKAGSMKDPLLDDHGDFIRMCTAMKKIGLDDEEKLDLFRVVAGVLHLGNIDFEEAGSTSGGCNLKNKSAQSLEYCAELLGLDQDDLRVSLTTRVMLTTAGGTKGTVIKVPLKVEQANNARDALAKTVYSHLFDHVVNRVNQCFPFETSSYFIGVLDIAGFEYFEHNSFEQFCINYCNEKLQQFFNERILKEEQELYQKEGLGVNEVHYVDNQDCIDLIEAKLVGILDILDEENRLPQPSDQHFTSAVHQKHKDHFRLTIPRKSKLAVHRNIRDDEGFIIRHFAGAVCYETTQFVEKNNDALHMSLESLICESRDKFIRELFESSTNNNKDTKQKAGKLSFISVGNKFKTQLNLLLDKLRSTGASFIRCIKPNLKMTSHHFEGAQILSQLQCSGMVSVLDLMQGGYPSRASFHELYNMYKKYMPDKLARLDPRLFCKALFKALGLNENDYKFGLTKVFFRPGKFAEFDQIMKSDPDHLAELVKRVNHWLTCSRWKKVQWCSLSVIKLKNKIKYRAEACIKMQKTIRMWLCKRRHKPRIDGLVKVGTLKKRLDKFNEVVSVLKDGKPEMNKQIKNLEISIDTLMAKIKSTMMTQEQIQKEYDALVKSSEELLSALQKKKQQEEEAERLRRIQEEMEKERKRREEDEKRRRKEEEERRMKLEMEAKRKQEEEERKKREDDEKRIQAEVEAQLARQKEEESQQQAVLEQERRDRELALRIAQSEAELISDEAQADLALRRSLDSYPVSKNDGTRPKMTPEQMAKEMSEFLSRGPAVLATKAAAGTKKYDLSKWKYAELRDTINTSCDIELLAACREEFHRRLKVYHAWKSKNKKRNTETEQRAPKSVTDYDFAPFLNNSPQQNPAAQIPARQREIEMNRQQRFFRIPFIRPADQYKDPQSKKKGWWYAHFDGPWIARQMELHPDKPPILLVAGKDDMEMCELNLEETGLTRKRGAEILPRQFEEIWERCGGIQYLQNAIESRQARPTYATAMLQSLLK

This is one part of the list.

Compound in the experiment: O=C(CCCCCCNC(=O)c1cnc(N(c2ccccc2)c2ccccc2Cl)nc1)NO [citarinostat]
Kind of experiment: log2 fold change, soluble protein after heating vs DMSO (PISA); higher = thermal stabilisation; K562 cells, 10 uM, 30 min; active = over 0.2 and 3.5 SD of the protein, either way, in both replicates (recomputed). The method in brief:
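Values are thermal stability changes relative to control samples and are taken from duplicates. They are stated as log2 fold changes. Before quantification by TMTpro 16plex LC-MS/MS with equalised channel sums, K562 cells at 2×10^6 cells/mL were treated with 10 μM compound for 30 min, heated in aliquots for 3 min across 48°C-58°C, pooled, extracted in PBS with 0.5% NP-40 at 4°C, and centrifuged at 21,000xg for 90 min to give the soluble supernatant.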
For MTCH1 (UniProt Q9NZJ7), the log2 fold change is inactive: 0.028.

In the case of MTHFD2 (UniProt P13995), the log2 fold change was inactive: 0.02.

MT-CYB (UniProt P00156): the log2 fold change is inactive: 0.076.

For MYH11 isoform 2 (UniProt P35749), the log2 fold change is inactive: 0.027.

For the target MT-ATP6 (UniProt P00846), the log2 fold change is inactive: 0.097.

Consider MYO1D (UniProt O94832), for which the log2 fold change is inactive: -0.083.

MTHFD1, A0A384N5Y3: the log2 fold change is inactive: 0.024.

In the case of MRRF (UniProt Q96E11), the log2 fold change is inactive: 0.07.

As to MTMR12 (UniProt Q9C0I1), the log2 fold change is inactive: 0.013.

MSN (UniProt P26038): the log2 fold change was inactive: -0.001.

For the target MSMO1 (UniProt Q15800), the log2 fold change is inactive: -0.063.

With MRPS10 (UniProt P82664), the log2 fold change is inactive: 0.07.

As for MTMR6 (UniProt Q9Y217), the log2 fold change was inactive: 0.085.

For the target MUCL1 (UniProt Q96DR8), the log2 fold change is inactive: -0.205.

For MRPS2 (UniProt Q9Y399), the log2 fold change is inactive: 0.001.

Regarding MRPS15 (UniProt P82914), the log2 fold change is inactive: 0.028.

For MRPS27 isoform 2 (UniProt Q92552), the log2 fold change was inactive: 0.08.

For the target MSRB2 (UniProt Q9Y3D2), the log2 fold change was inactive: 0.131.

As for MYCBP (UniProt Q99417), the log2 fold change was inactive: 0.009.

As to MRPS11 (UniProt P82912), the log2 fold change is inactive: 0.02.

Consider MRPS33 (UniProt Q9Y291), for which the log2 fold change is inactive: 0.039.

Turning to MRTFA (UniProt Q969V6), the log2 fold change was inactive: 0.116.

With MYL6B (UniProt P14649), the log2 fold change was inactive: 0.007.

On to MTM1 (UniProt Q13496), for which the log2 fold change is inactive: 0.02.

Regarding MRPS36 (UniProt P82909), the log2 fold change is inactive: -0.077.

Take MTRR isoform 1 (UniProt Q9UBK8): the log2 fold change is inactive: -0.012.

MRPS24 (UniProt Q96EL2): the log2 fold change was inactive: -0.053.

Consider MTPAP (UniProt Q9NVV4), for which the log2 fold change is inactive: -0.021.

In the case of MRPL9 (UniProt Q9BYD2), the log2 fold change was inactive: 0.017.

Take MRPS30 (UniProt Q9NP92): the log2 fold change was inactive: -0.004.

For the target MTMR14 (UniProt Q8NCE2), the log2 fold change was inactive: 0.08.

Regarding MTX2 (UniProt O75431), the log2 fold change is inactive: 0.033.

Take MTA1 (UniProt Q13330): the log2 fold change was inactive: -0.037.

Turning to MYADM (UniProt Q96S97), the log2 fold change is inactive: 0.045.

Turning to MTOR (UniProt P42345), the log2 fold change was inactive: 0.035.

For the target MYO6 isoform 6 (UniProt Q9UM54), the log2 fold change is inactive: -0.033.

As for MYH9 (UniProt P35579), the log2 fold change is inactive: 0.034.

Take MRPS18A isoform 2 (UniProt Q9NVS2): the log2 fold change is inactive: -0.028.

MRS2 (UniProt Q9HD23): the log2 fold change was inactive: 0.031.
